Source: PubChem BioAssay AID2685 (National Center for Advancing Translational Sciences (NCATS), 2010)
This is one part of the list. The main result of the screen is listed elsewhere. These columns were measured beside it and carry no call. Most of these compounds were active or inconclusive in the main read-out, so they are no random draw. Potencies come from curve fits of mixed quality, noted in brackets.

Experiment: qHTS Assay for Lipid Storage Modulators in Drosophila S3 Cells;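 on cell number change: cells counted by Cell Tracker Red CMTPX staining in the red channel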
Settings: BODIPY lipid droplet fluorescence, 18-24 h; for cell number change: measured here: cell count max response, cells fed with added oleic acid
Procedure, shortened: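 Drosophila S3 cells got compounds at several concentrations plus oleic acid (400 uM solution). Laser-scanning cytometry with 488 nm excitation read lipid droplets at 500-530 nm and cells at 575-640 nm. Percent activity was relative to 20 uM Triacsin C.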

[1] = measured here: lipid fluorescence (Fed channel) AC50, cells fed with added oleic acid
[2] = measured here: cell number channel AC50, cells fed with added oleic acid

| Structure (SMILES) | cell number change [%] | AC50 [1] | AC50 [2] |
| --- | --- | --- | --- |
| CCCCC1S/C(=N/N=C/c2cccs2)NC1=O (configuration not stated) | -14.9 | – | – |
| Nc1c(C=C2C=CC(=O)C=C2)c(=O)nc2sc(CC(=O)N3CCOCC3)nn12 | -13.4 | 29.1 µM [rising, single point] | – |
| CC(=O)Nc1ccc2c(CSc3nncs3)cc(=O)oc2c1 | 8.17 | 1.03 µM [rising, full curve] | – |
| CCc1c(O)nc(SCC(=O)Nc2ccc(OC)cc2)n(C2CCCCC2)c1=O | 58.1 | – | 29.1 µM [rising, single point] |
| CC(C)n1nc(C(=O)Oc2cc(Cl)ccc2Cl)c2ccccc2c1=O | 27.1 | 0.00461 µM [falling, full curve, poor fit] | – |
| O=C(COc1ccccc1[N+](=O)[O-])N(Cc1ccco1)C1CCS(=O)(=O)C1 (configuration not stated) | -25.5 | – | – |
| CCCn1c(=O)c2ccccc2n2c(Sc3nnnn3-c3ccccc3)nnc12 | -23.8 | 1.84 µM [falling, partial curve, poor fit] | – |
| COCCCn1c(=NC(=O)c2ccncc2)c(C#N)cc2c(=O)n3cccc(C)c3nc21 | – | 0.366 µM [rising, full curve] | 0.411 µM [rising, full curve] |
| Cc1ccc(S(=O)(=O)N2CCC(C(=O)Nc3nnc(-c4ccco4)s3)CC2)cc1 | 18.4 | – | – |
| CC1(C)CC(NC(=O)c2ccc(Br)o2)CC(C)(C)N1 | -26.7 | 29.1 µM [rising, partial curve] | – |
| CCCCOc1ncnc2c1[nH]c1ccc(F)cc12 | -33.4 | 18.4 µM [falling, single point] | 18.4 µM [falling, single point] |
| Cc1ccc(NC(=O)CN2C(=O)C(=O)N(C3CCCC3)C2=O)c(Cl)c1 | -1.29 | – | 0.461 µM [falling, partial curve, poor fit] |
| COc1cc(C(=O)NCC(=O)OC(C)C(=O)Nc2ncc(Cl)cc2Cl)cc(OC)c1OC (configuration not stated) | 21.1 | – | – |
| CC(O)CNc1nc2c(c(=O)n(Cc3ccc(Cl)c(Cl)c3)c(=O)n2C)n1C (configuration not stated) | -27 | 0.326 µM [falling, partial curve, poor fit] | 0.0731 µM [falling, full curve, poor fit] |
| O=C1CCCC(O)=C1C(C#Cc1ccccc1)C1=C(O)CCCC1=O | – | 0.146 µM [falling, full curve, poor fit] | – |
| Cc1cccc(NC(=O)CSc2nnc(NC(=O)CN3CCOCC3)s2)c1 | -8.73 | 0.58 µM [falling, single point] | – |
| CCc1cccc(CC)c1NC(=S)NCc1ccc2[nH]c(C)cc2c1 | -19 | 14.6 µM [falling, single point] | – |
| CCC(=O)N1CCc2cc(S(=O)(=O)NC(Cc3ccccc3)C(=O)NC3CCCCC3)ccc21 (configuration not stated) | 10.2 | 13 µM [rising, partial curve] | – |
| CC(C)(C)c1ccc(C(=O)CSc2n[nH]c(=O)[nH]c2=O)cc1 | – | 2.06 µM [falling, partial curve] | – |
| O=c1[nH]c(C2CCCN(S(=O)(=O)c3ccccc3)C2)nc2c1nnn2Cc1ccc2c(c1)OCCO2 (configuration not stated) | -9.73 | – | – |

| Structure (SMILES) | cell number change [%] | AC50 [1] | AC50 [2] |
| --- | --- | --- | --- |
| CCOC(=O)c1sc2nc(CSCC(=O)OCc3ccc(C(=O)OC)o3)[nH]c(=O)c2c1C | -31.9 | 0.13 µM [falling, full curve, poor fit] | 32.6 µM [falling, single point] |
| CCOc1ccc(CC(=O)N2CCC3(CC2)NCCc2[nH]cnc23)cc1 | – | 29.1 µM [rising, single point] | – |
| O=C(CSc1ccccc1)N1CCN(S(=O)(=O)c2cccs2)CC1 | – | 6.51 µM [rising, single point] | 0.731 µM [rising, full curve] |
| O=C1c2ccccc2C(=O)N1CCc1nc(-c2ccncc2)no1 | -15.8 | 0.146 µM [rising, full curve, poor fit] | 0.651 µM [falling, full curve, poor fit] |
| CC(C)Oc1cccc(OCCN2C(=O)c3ccccc3C2=O)c1 | 187 | – | 29.1 µM [rising, partial curve] |
| CN1CCN(C(=O)c2c(NC(=O)c3ccco3)sc3c2CCC(C(C)(C)C)C3)CC1 (configuration not stated) | -0.834 | – | – |
| CCOC(=O)C(NC(=O)CC)(Nc1ccc(S(=O)(=O)Nc2cc(C)on2)cc1)C(F)(F)F (configuration not stated) | -0.922 | 9.2 µM [falling, partial curve] | – |
| CCOc1ccccc1NC(=O)c1cc(CC(C)C)oc1C | – | 0.13 µM [falling, full curve, poor fit] | 0.13 µM [falling, full curve, poor fit] |
| O=C(NCCSc1c[nH]c2ccccc12)c1ccco1 | -20.2 | 20.6 µM [falling, single point] | – |
| CCN(CC)S(=O)(=O)c1ccc(/C(O)=C(\C#N)c2nc3ccccc3n2C)cc1 | -10.9 | 4.61 µM [rising, partial curve] | 0.259 µM [rising, full curve, poor fit] |
| Cc1ccc(-n2cc3c(-c4cccc(Br)c4)nnc(C)c3n2)cc1 | 12.8 | 5.8 µM [rising, partial curve] | – |
| Cc1nn(-c2ccccc2)c2c1C(O)n1c(nc3ccccc31)S2 (configuration not stated) | -90.8 | 11.6 µM [falling, single point] | 29.1 µM [falling, single point] |
| CN1CCN(CC#CC(C)(O)C2CC3C=CC2C3)CC1 (configuration not stated) | -40.4 | – | 0.00461 µM [falling, full curve, poor fit] |
| O=c1c(-c2nc3ccccc3s2)cccn1Cc1ccccc1 | 32.5 | – | 23.1 µM [rising, single point] |
| Cc1ccc(-c2ccccc2[C@@H]2C[C@H]3CN(C)C(=O)[C@]34CCCN24)o1 | 31.1 | – | 23.1 µM [rising, single point] |
| CCOc1cc(/C=N/NC(=O)c2ccncc2)ccc1OC(=O)c1ccccc1 | – | 17.8 µM [falling, partial curve] | – |
| CCOC(=O)Cc1cnc(NC(=O)CSc2nc(C(C)C)cc(=O)[nH]2)s1 | 7.89 | – | – |
| c1ccc(C(c2ccccc2)c2ccn[nH]2)cc1 | -6.14 | 14.6 µM [falling, partial curve, poor fit] | – |
| O=C1Nc2ccccc2C(O)(C(=O)NCc2ccc3c(c2)OCO3)N1c1ccccc1 (configuration not stated) | 9.8 | 29.1 µM [rising, single point] | – |
| C=CCOc1ccccc1C1C2=C(CC(C)(C)CC2=O)Nc2c1c(=O)n(C)c(=O)n2C (configuration not stated) | -0.928 | – | – |

Already shown: two of the compounds above.

| Structure (SMILES) | cell number change [%] | AC50 [1] | AC50 [2] |
| --- | --- | --- | --- |
| CCOC(=O)Cc1cnc(NC(=O)CSc2nc(C(C)C)cc(=O)[nH]2)s1 | 7.89 | – | – |
| c1ccc(C(c2ccccc2)c2ccn[nH]2)cc1 | -6.14 | 14.6 µM [falling, partial curve, poor fit] | – |

(cont.)

| Structure (SMILES) | cell number change [%] | AC50 [1] | AC50 [2] |
| --- | --- | --- | --- |
| O=Cc1ccc(C(=O)OCC(=O)N2CCCC2)cc1 | -3.6 | 29.1 µM [falling, single point] | – |
| O=C(Nc1nnc(SCc2ccc(Cl)cc2)s1)C1CC(=O)N(Cc2ccccc2)C1 (configuration not stated) | -19.6 | 0.0291 µM [falling, full curve, poor fit] | – |
| Cc1oc(-c2ccc(Cl)cc2)nc1CN1CCC(C(=O)N2CCN(Cc3ccccc3)CC2)CC1 | 2.21 | 0.116 µM [rising, full curve, poor fit] | – |
| CCCNc1nc2nc3ccccn3c(=O)c2cc1C(=O)NCCN1CCOCC1 | 11.8 | – | – |
| Cc1cccnc1NC(=O)Cn1nc(C)c([N+](=O)[O-])c1C | – | 1.46 µM [rising, partial curve] | 1.03 µM [rising, partial curve] |
| CCCC1CC(c2csc(N)n2)CCO1 (configuration not stated) | 10.4 | 29.1 µM [rising, single point] | – |
| COCCCn1c(SCC(=O)NCc2ccco2)nc2sc3c(c2c1=O)CCC3 | -27.9 | 4.11 µM [falling, full curve, poor fit] | – |
| CCC1Nc2ncnc(N3CCN(c4ccccn4)CC3)c2N(Cc2ccc(Cl)cc2)C1=O (configuration not stated) | -31.4 | 29.1 µM [falling, partial curve, poor fit] | 6.51 µM [falling, partial curve] |
| O=C(NC1=NCCS1)C1CCCCC1 | -19.2 | – | 0.731 µM [rising, single point] |
| CNC(=O)CSc1nc2c([nH]c3ccccc32)c(=O)n1CCOC | 12.3 | 0.116 µM [rising, full curve, poor fit] | – |
| Oc1ccc(Nc2nc(-c3ccc(O)cc3)cs2)cc1 | -152 | 29.1 µM [falling, partial curve] | 29.1 µM [falling, partial curve] |
| CCOc1cccc(-c2cc(C(=O)Nc3ccon3)c3ccccc3n2)c1 | -17.5 | – | – |
| Cc1cc(NC(=O)Cn2c(=O)c3c(ncn3CCC(C)C)n(Cc3ccccc3)c2=O)no1 | -16.9 | 2.59 µM [falling, partial curve, poor fit] | – |
| CCN(CC)P1(=O)OC(c2cc(OC)c(OC)c(OC)c2)=Nc2c1c(C)nn2-c1ccccc1 (configuration not stated) | – | 0.411 µM [rising, partial curve] | 0.116 µM [rising, single point] |
| O=C(Nc1cccc(-c2nn[nH]n2)c1)c1ccc(Br)s1 | 3.23 | 20.6 µM [rising, single point] | – |
| O=c1[nH]oc2cc(Cl)ccc12 | 16 | 0.58 µM [rising, full curve, poor fit] | – |
| CN(C)S(=O)(=O)N1CCN(CC(=O)Nc2ccc(Br)cc2)CC1 | 31.1 | – | 7.31 µM [rising, partial curve, poor fit] |
| CCOc1ccc(/C=N/NC(=S)Nc2c(C)cccc2C)cc1 | -13.5 | – | 0.146 µM [rising, full curve] |
| Cc1ccc(-n2ncc3c2CC(C)(C)CC3NC(=O)Cc2c(C)noc2C)cc1 (configuration not stated) | -17.3 | 9.2 µM [falling, single point] | – |
